# Assay results from patent CN114133451A.
# These are yes or no findings as the source states them, for the method shown. Some results given as binding are weak or reduced against the parent protein; the word gives no strength.
# T1: 重组弓形虫毒力因子ROP18 (Toxoplasma gondii) (UniProt Q2PAY2)
# T1 sequence (looked up): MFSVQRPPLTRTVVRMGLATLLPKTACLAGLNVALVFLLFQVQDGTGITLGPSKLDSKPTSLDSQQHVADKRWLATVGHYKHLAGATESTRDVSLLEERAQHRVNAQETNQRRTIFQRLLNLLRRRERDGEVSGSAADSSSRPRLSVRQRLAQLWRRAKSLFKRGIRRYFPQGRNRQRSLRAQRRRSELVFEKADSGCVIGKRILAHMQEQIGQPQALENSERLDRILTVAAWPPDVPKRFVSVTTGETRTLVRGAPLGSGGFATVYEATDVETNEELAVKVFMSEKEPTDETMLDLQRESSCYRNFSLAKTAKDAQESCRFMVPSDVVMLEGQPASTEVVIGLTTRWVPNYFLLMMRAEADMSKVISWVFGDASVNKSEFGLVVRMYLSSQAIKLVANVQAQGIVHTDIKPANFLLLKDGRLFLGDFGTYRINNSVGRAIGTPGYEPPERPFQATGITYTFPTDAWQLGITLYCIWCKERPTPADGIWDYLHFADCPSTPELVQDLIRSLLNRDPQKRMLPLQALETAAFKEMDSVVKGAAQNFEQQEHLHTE
# B1: 弓形虫毒力因子ROP18纳米抗体22号克隆株 (VHH, not shown: small tags and cut ends)
# VHH: QVQLVESGGGSVQAGGSLRLSCVASRYTYTYSTYCLGWFRQAPGKEREEIAIIDSDGGARYADSVKGRFTISRDNAKSTLYLHMNSLKPDDTAMYSCAAGRPAPSLGYKCMYNSRHKGTLVTVSS
# Target: T1, 重组弓形虫毒力因子ROP18 (Toxoplasma gondii)
# Test: ELISA of crude periplasmic extract on coated antigen, anti-His detection
binder,measurement,value
B1,binding,binds
